Values from PubChem BioAssay AID743458 (Peter MacCallum Cancer Centre, 2014)

Aim: 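Identify genes whose loss lifts vorinostat resistance in colon cancer cells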 (follow-up of hits)
Cells: human HCT116-VR colon cancer cells made resistant to vorinostat
Knock-down reagent: single siRNA or pool against human genes, 25 nM per single siRNA
Duration: about 72 h after transfection, including 24 h of drug
Challenge: vorinostat, 2.5 µM final, for 24 h
Measured: 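Live-cell fluorescent viability and luminescent caspase 3/7 activity after vorinostat treatment, background subtracted, mean of duplicate plates, as fold change over mock-transfected wells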
Reading the numbers: viability relative to mock: higher = more living cells than mock; caspase activity relative to mock: higher = more apoptosis than mock
Call rule: 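Active means a reduced-viability or caspase-activation class, anything else inactive; classes could only be given to wells that looked healthy when left untreated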
Shown is one part, drawn at random, of about 1,800 deposited reagents. 732 of them (41%) count as active. 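Calls are per siRNA reagent; a gene was deemed confirmed only if most of its four siRNAs scored.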 Entries without a mark were called inactive.

With AVP (GeneID 551) [SID152149550], what was measured?
viability relative to mock: 0.36 (active); caspase activity relative to mock: 0.88; viability hit class: reduced viability; caspase hit class: no change

What did the screen give for AVP (GeneID 551) [SID152152872]?
viability relative to mock: 0.62; caspase activity relative to mock: 1.42; viability hit class: no change; caspase hit class: no change

With AVP (GeneID 551) [SID152154704], what does the deposit list?
viability relative to mock: 0.4 (active); caspase activity relative to mock: 0.74; viability hit class: reduced viability; caspase hit class: no change

Which result is listed for AVP (GeneID 551) [SID152155866]?
viability relative to mock: 1.05; caspase activity relative to mock: 2.51; viability hit class: no change; caspase hit class: no change

How did the screen score SLC60A1 (GeneID 148808) [SID134279369]?
viability relative to mock: 1.13; caspase activity relative to mock: 1.3; viability hit class: no change; caspase hit class: no change

Which result is listed for SLC60A1 (GeneID 148808) [SID134279370]?
viability relative to mock: 0.89; caspase activity relative to mock: 1.66; viability hit class: no change; caspase hit class: no change

With SLC60A1 (GeneID 148808) [SID134279371], how do the results read?
viability relative to mock: 0.96; caspase activity relative to mock: 2.11; viability hit class: no change; caspase hit class: no change

What did the screen give for SLC60A1 (GeneID 148808) [SID134279372]?
viability relative to mock: 0.86; caspase activity relative to mock: 1.71; viability hit class: no change; caspase hit class: no change

What did the screen give for ADCY7 (GeneID 113) [SID134237633]?
viability relative to mock: 0.98; caspase activity relative to mock: 1.73; viability hit class: no change; caspase hit class: no change

With ADCY7 (GeneID 113) [SID134237634], how do the results read?
viability relative to mock: 0.6 (active); caspase activity relative to mock: 3.32; viability hit class: no change; caspase hit class: caspase activation

How did the screen score ADCY7 (GeneID 113) [SID134237635]?
viability relative to mock: 0.18; caspase activity relative to mock: 1.54; viability hit class: no change; caspase hit class: no change

With ADCY7 (GeneID 113) [SID134237636], how do the results read?
viability relative to mock: 0.77; caspase activity relative to mock: 2.54; viability hit class: no change; caspase hit class: no change

Which result is listed for QSOX1 (GeneID 5768) [SID134252585]?
viability relative to mock: 0.99; caspase activity relative to mock: 1.79; viability hit class: no change; caspase hit class: no change

Which result is listed for QSOX1 (GeneID 5768) [SID134252586]?
viability relative to mock: 0.72; caspase activity relative to mock: 1.68; viability hit class: no change; caspase hit class: no change

How did the screen score QSOX1 (GeneID 5768) [SID134252587]?
viability relative to mock: 0.58 (active); caspase activity relative to mock: 4.41; viability hit class: no change; caspase hit class: caspase activation

For QSOX1 (GeneID 5768) [SID134252588], what was measured?
viability relative to mock: 0.56 (active); caspase activity relative to mock: 3.97; viability hit class: reduced viability; caspase hit class: caspase activation

Looked up above.
For “caspase activity relative to mock”, ADCY7 (GeneID 113) [SID134237634] is entered as 3.32 (active)
SLC60A1 (GeneID 148808) [SID134279369], viability hit class → no change
